Results taken from patent publication US10131920B2, “Nucleic acid molecules” (MEDIMMUNE LIMITED, priority 2013, dated 2018).
Some results were stated once for a whole list of compounds, not compound by compound.

B1: 3×Glu: three tandem repeats of the murine tRNA glu and pyltRNA bicistronic pair (nucleic acid)
DNA: GCCGTGACCTCGGGCCGACGCTCCCTGGTGGTCTAGTGGTTAGGATTCGGCGCTCTCACCGCCGCGGCCCGGGTTCGATTCTCGGTCAGGGAAGCCTCTCCCCCAAACCTCGGAAACCTGATCATGTAGATCGAATGGACTCTAAATCCGTTCAGCCGGGTTAGATTCCCGGGGTTTCCGCTTCTTCCTCTTTTCTGCACCCTCACTTCAGCTGAGCCGTGACCTCGGGCCGACGCTCCCTGGTGGTCTAGTGGTTAGGATTCGGCGCTCTCACCGCCGCGGCCCGGGTTCGATTCTCGGTCAGGGAAGCCTCTCCCCCAAACCTCGGAAACCTGATCATGTAGATCGAATGGACTCTAAATCCGTTCAGCCGGGTTAGATTCCCGGGGTTTCCGCTTCTTCCTCTTTTCTGCACCCCAATATTGCCGTGACCTCGGGCCGACGCTCCCTGGTGGTCTAGTGGTTAGGATTCGGCGCTCTCACCGCCGCGGCCCGGGTTCGATTCTCGGTCAGGGAAGCCTCTCCCCCAAACCTCGGAAACCTGATCATGTAGATCGAATGGACTCTAAATCCGTTCAGCCGGGTTAGATTCCCGGGGTTTCCGTAGCGTCCTTTTTGGAAAGACAAGTGGGTGGCGAATTCGATATC
modifications: Synthetic sequence 3x tRNAglu-pyl DNA construct including 3 repeats of the bicistronic construct tRNAglu-tRNApyl
notes: three tandem repeats of the murine tRNA glu and pyltRNA bicistronic pair
B2: 2×Asp: two tandem repeats of the murine tRNA asp-pyl tRNA bicistronic pair (nucleic acid)
DNA: TCCTCGTTAGTATAGTGGTGAGTATCCCCGCCTGTCACCCGCGAGACCGGCGTTCCATTCCCCGACGGGGAGACGTAGCCCCACCTCGGAAACCTGATCATGTAGATCGAATGGACTCTAAATCCGTTCAGCCGGGTTAGATTCCCGGGGTTTCCGTAGCGTCCTTTTTGGAAAGACAAGGTGCGTCGTAGTCGGCGTTGTCCTCGTTAGTATAGTGGTGAGTATCCCCGCCTGTCACCCGCGAGACCGGCGTTCCATTCCCCGACGGGGAGACGTAGCCCCACCTCGGAAACCTGATCATGTAGATCGAATGGACTCTAAATCCGTTCAGCCGGGTTAGATTCCCGGGGTTTCCGTAGCGTCCTTTTT
modifications: Synthetic sequence 2x tRNAasp-pyl DNA construct including 2 repeats of the bicistronic construct tRNAasp-pyl
notes: two tandem repeats of the murine tRNA asp-pyl tRNA bicistronic pair

Tested on: GFPY40 reporter in 3H7 cells
Test: Amber suppression-dependent GFP expression (GFPY40 reporter), transient transfection of 3H7 cells, flow cytometry
Format: cell-based
Conditions: lys-azide, three days
Experimental: To assess the function of the tRNA variants, an in vitro assay was established where cells are transiently transfected with a tRNA construct and a reporter construct encoding GFP containing an amber codon interrupting its reading frame (GFPY40). HEK293 cells stably expressing pylRS were transiently transfected with various tRNA constructs (1 ug) and the GFPY40 reporter (1 ug). In the absence of elements that support amber suppression, a truncated GFP protein is generated and the cell is not fluorescent. However, the introduction of a functional tRNA and the presence of a nnAA that supports amber suppression allows for the production of full length GFP resulting in fluorescent cells. The level of GFP expression reflects the efficiency of amber suppression and is quantified by flow cytometry. tRNA genes encoding wild type tRNApyl (WT tRNA), or containing mutations in the B-box (B tRNA—SEQ ID No 9), in both the A and B box (A2B tRNA—SEQ ID No 10), or in the A box (A1 tRNA-SEQ ID No 7; or A2 tRNA SEQ ID No 11), all under control of the H1 promoter were generated by site directed mutagenesis and assayed. The H1 promoter ensured that the variants were expressed and allowed us to examine the functional effects of the mutations introduced into the tRNA genes. […] GFP fluorescence was then assayed by flow cytometry and mean fluorescence intensity determined for each sample. […]

Row | Molecule | signal relative to that generated by H1-tRNA (FIG. 11) [%]
1 | B1 | > 90
2 | B2 | > 90
